Literature values, collected in patent US20120177742A1, “NANOPARTICLE AND SURFACE-MODIFIED PARTICULATE COATINGS, COATED BALLOONS, AND METHODS THEREFORE” (MICELL TECHNOLOGIES, INC., priority 2010, published 2012).

Conditions: cited from earlier work

CO[C@H]1C[C@@H]2CC[C@@H](C)[C@@](O)(O2)C(=O)C(=O)N2CCCC[C@H]2C(=O)O[C@H]([C@H](C)C[C@@H]2CC[C@@H](O)[C@H](OC)C2)CC(=O)[C@H](C)/C=C(\C)[C@@H](O)[C@@H](OC)C(=O)[C@H](C)C[C@H](C)/C=C/C=C/C=C/1C [sirolimus]
solubility in ethanol: up to 50 mg/ml
